# Data published in PubChem BioAssay AID493014 (National Center for Advancing Translational Sciences (NCATS), 2011).
# The list shows a part of the results. Further columns of the screen follow, without active or inactive calls. The list favours compounds with an active or inconclusive main result. Potencies come from curve fits of mixed quality, noted in brackets.
# Assay: qHTS Assay to Find Inhibitors of Chronic Active B-Cell Receptor Signaling
# Conditions: ABC-DLBCL IkBa-CBG/CBR reporter, luminescence ratio (green luciferase fused to IkBa over red control in TMD8 lymphoma cells), 4 h
# How it was run: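 Compounds up to 46 uM were incubated four hours with TMD8 cells whose green CBG68 luciferase is fused to IkappaBalpha; red CBR luminescence normalised the signal, and concentration-effect curves were fitted to fusion, red and ratio data.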
# [1] = measured here: CBR red luminescence, cell number
# [2] = measured here: IkBa-CBG green luminescence
SMILES,AC50 [1],AC50 [2]
CCCc1cc(=O)n2c([nH]c3ccccc32)c1C#N,"0.651 µM [falling, full curve]",
Cc1ncc(CN2CCCC(C(=O)Nc3ccc(-c4cccc(F)c4)cc3)C2)n1C (centres undefined),"25.1 µM [falling, single point]",
O/N=C(\c1ccc2c(c1)OCCO2)C1CCCCC1,"6.51 µM [rising, partial curve, poor fit]",
Cc1ccc(NC(=O)c2cc(-c3ccco3)nc3ccccc23)cc1S(=O)(=O)N1CCOCC1,"31.6 µM [falling, single point]",
O=C1c2ccc(-c3ccc(F)cc3OCc3ccccc3)cc2S(=O)(=O)c2cccc(C(=O)N3CCN(c4ncc(Cl)cc4Cl)CC3)c21,"5.17 µM [rising, partial curve, poor fit]",
Cc1ccc(NC(=O)C(C)N2CCc3ccccc3C2)cc1 (centres undefined),"14.1 µM [rising, single point]",
Cc1ccccc1C(=O)N1CCN(c2ccc(NC(=S)NC(=O)c3ccco3)cc2)CC1,"3.98 µM [falling, partial curve, poor fit]",
O=C(CSc1nc2ccccc2[nH]1)Nc1nc(-c2ccccc2)c(-c2ccccc2)o1,,"2.91 µM [rising, full curve, poor fit]"
Cc1ccc(NC(=O)c2cc(=O)c3ccccc3o2)cc1S(=O)(=O)N1CCCCC1,"14.1 µM [falling, single point]",
C/C(=N/NC(=O)c1ccc(Br)o1)C(C)C,"16.4 µM [falling, single point]",
Cc1cccc(C)c1NC(=O)COC(=O)c1ccccc1Nc1ccccc1,"2.31 µM [rising, full curve, poor fit]",
COC(=O)c1ccccc1NC(=O)C1CCCN(S(=O)(=O)c2ccc(F)cc2)C1 (centres undefined),"1.84 µM [rising, partial curve, poor fit]",
Cc1nc(NC(=O)c2cccs2)ccc1Br,"10 µM [falling, single point]",
COc1ccc(-c2csc(NC3OC(=O)c4c3ccc(OC)c4OC)n2)cc1OC (centres undefined),"12.6 µM [falling, partial curve, poor fit]",
CCC(=O)Nc1cc2c(cc1C(C)=O)OCCO2,"8.2 µM [falling, partial curve]","23.1 µM [rising, partial curve, poor fit]"
Clc1ccc(CN2C3=NCCCN3c3ccccc32)cc1,"11.2 µM [falling, partial curve]",
Cc1nn(C(=O)c2cccc([N+](=O)[O-])c2)c(C)c1Cl,"11.2 µM [rising, partial curve, poor fit]",
CC1(C(=O)Nc2ccccc2)Cc2ccccc2C(=O)O1 (centres undefined),"35.5 µM [falling, single point]",
CCCSC1=C(C#N)C(c2ccc(Cl)cc2Cl)CC(=O)N1 (centres undefined),"20.6 µM [falling, single point]",
O=C(O)c1ccc(N2CCN(C(c3ccccc3)c3ccccc3)CC2)c([N+](=O)[O-])c1,"11.2 µM [falling, partial curve, poor fit]","17.8 µM [rising, partial curve, poor fit]"
Cc1ccc(-c2nc3ccccc3[nH]2)cc1NC(=O)c1sc2cc(Cl)ccc2c1Cl,"1.3 µM [rising, full curve]",

# One compound at a time, as listed above:
# `Cc1ccc(-c2nc3ccccc3[nH]2)cc1NC(=O)c1sc2cc(Cl)ccc2c1Cl` reads AC50 [1]: 1.3 µM [rising, full curve]
# `CCCSC1=C(C#N)C(c2ccc(Cl)cc2Cl)CC(=O)N1` (centres undefined) reads AC50 [1]: 20.6 µM [falling, single point]
# `Cc1ccccc1C(=O)N1CCN(c2ccc(NC(=S)NC(=O)c3ccco3)cc2)CC1` reads AC50 [1]: 3.98 µM [falling, partial curve, poor fit]
# `Cc1ccc(NC(=O)c2cc(-c3ccco3)nc3ccccc23)cc1S(=O)(=O)N1CCOCC1` reads AC50 [1]: 31.6 µM [falling, single point]

# Later entries

SMILES,AC50 [1],AC50 [2]
Cc1cc(C)n(-c2nc(Nc3ccccc3)nc(-n3nc(C)cc3C)n2)n1,"0.891 µM [falling, full curve, poor fit]",
COC(=O)c1c(C)[nH]c(C(=O)C(C)OC(=O)C2CC(=O)N(c3ccc(C)cc3)C2)c1C (centres undefined),"18.4 µM [falling, single point]",
Nc1nnc(CC(=O)N/N=C/c2cccc(OCCOc3ccccc3)c2)s1,"29.1 µM [falling, single point]",
Cc1nc(-c2ccccc2)sc1C1(C)CC(c2ccc(OC(F)(F)F)cc2)=NO1 (centres undefined),"25.1 µM [rising, single point]",
CCN(C(=O)COC(=O)c1[nH]c(C)c(C(C)=O)c1C)C1CCS(=O)(=O)C1 (centres undefined),"20 µM [falling, partial curve, poor fit]",
CN(c1ccccc1)S(=O)(=O)c1ccc(Cl)c(C(=O)NCCc2c[nH]c3ccccc23)c1,"25.9 µM [falling, single point]",
Cc1ccc(-c2nn(-c3ccccc3)cc2C(=O)NCC(c2cccs2)N2CCOCC2)cc1 (centres undefined),"18.4 µM [rising, single point]",
N#CCSc1nc2cc(C(=O)N3CCC(C(N)=O)CC3)ccc2c2nc3ccccc3n12,"5.01 µM [falling, partial curve]",
COC(=O)C1CCN(Cc2nnc(-c3ccccc3)o2)CC1,"10 µM [rising, partial curve, poor fit]",
Cn1c(=O)c2[nH]c(Nc3ccccc3)nc2n(C)c1=O,"1.03 µM [falling, full curve]",
COc1ccc(CNC(C)C23CC4CC(CC(C4)C2)C3)c(OC)c1OC (centres undefined),"35.5 µM [falling, single point]",
O/N=C(/c1ccc(Cl)cc1)C1CC1c1ccccc1 (centres undefined),"0.447 µM [rising, full curve, poor fit]",
N#CCCn1c(SCC(=O)Nc2ccc(N3CCOCC3)cc2)nc2ccccc21,"4.11 µM [rising, full curve, poor fit]",
COc1cc(C2C(C(=O)Nc3ccc(F)cc3)=C(C)Nc3nc(CCCO)nn32)cc(OC)c1OC (centres undefined),"5.17 µM [falling, single point]",
COc1ccc(NC(=O)CN(C)C(=O)c2cc3c(s2)CCC(C)C3)cc1 (centres undefined),"14.1 µM [falling, partial curve, poor fit]",
CC1(C)Cc2c(sc3ncnc(NNC(=S)NCc4ccccc4)c23)CO1,,"23.1 µM [falling, partial curve, poor fit]"
CCCn1c(=NC(=O)c2c(-c3c(F)cccc3Cl)noc2C)c(C(=O)OCC)cc2c(=O)n3ccccc3nc21,"1.64 µM [rising, full curve]",
CCCNC(=O)c1c(N)n(-c2cc(OC)cc(OC)c2)c2nc3ccccc3nc12,"5.62 µM [falling, full curve]",
O=c1[nH]c(C2CCN(S(=O)(=O)c3cccc(C(F)(F)F)c3)CC2)nc2c1nnn2Cc1cccc(F)c1,"17.8 µM [falling, single point]",
NC(=NCCc1c[nH]c2ccccc12)NS(=O)(=O)c1ccc2ccccc2c1,"20.6 µM [falling, partial curve]",
CC(=O)N/N=C\c1cccc(OC/C=C/c2ccccc2)c1,"10 µM [falling, partial curve]",

SMILES,AC50 [1],AC50 [2]
CC1CC(C)CN(C(=O)COc2ccc([N+](=O)[O-])cc2Cl)C1 (centres undefined),"35.5 µM [rising, single point]",
Cc1[nH]n(-c2ccccc2)c(=O)c1N=Nc1ccc(C(=O)O)cc1,"0.398 µM [falling, full curve]",
CSCCC(NS(=O)(=O)c1ccc(C)cc1)C(=O)NCC(C)(C)N1CCOCC1 (centres undefined),"29.1 µM [rising, partial curve, poor fit]",
COc1ccc(S(=O)(=O)N2CCOC2CNC(=O)C(=O)NCc2cccnc2)cc1C (centres undefined),"7.08 µM [rising, partial curve, poor fit]",
CCOC(=O)C1CCN(S(=O)(=O)c2cn(C)c(=O)n(C)c2=O)CC1,"13 µM [rising, partial curve, poor fit]",
CCOC(=O)N1CCN(C(=O)COc2ccc(S(=O)(=O)NC(C)C)cc2)CC1,"6.51 µM [rising, partial curve, poor fit]",
COc1ccccc1C(=O)NNC(=S)NC(=O)c1sc2ccccc2c1Cl,"0.411 µM [falling, full curve]",
Brc1ccc(-c2nnc(-c3ccccc3)c(N3CCSCC3)n2)cc1,"1.58 µM [falling, full curve]",
CC1Cc2ccccc2N1S(=O)(=O)c1cccc(C(=O)OCC(=O)N2CCOCC2)c1 (centres undefined),"16.4 µM [rising, partial curve, poor fit]",
CCCCOc1ccc(C(=O)NCC(=O)N2CC(C)OC(C)C2)cc1 (centres undefined),"29.1 µM [rising, single point]","4.61 µM [falling, partial curve, poor fit]"
COc1ccccc1/C=N/NC(=O)C(NC(=O)c1ccccc1)=C(C)C,"5.8 µM [falling, partial curve]",
Cc1cc(OCC(=O)N(C)c2c(N)n(Cc3ccccc3)c(=O)[nH]c2=O)c(C(C)C)cc1Cl,"7.31 µM [rising, partial curve, poor fit]",
COc1ccc(NC2CC(=O)N(c3ccccc3)C2=O)cc1 (centres undefined),"0.116 µM [rising, full curve]",
CCOC(=O)CSc1nnc(SCCN2C(=O)c3ccccc3C2=O)s1,"29.1 µM [falling, single point]",
O=C(Nc1ccccc1)O/N=C/c1ccc(F)cc1,"2 µM [falling, full curve]",
O=C(Cn1ccc([N+](=O)[O-])n1)Nc1nc2ccccc2s1,"12.6 µM [falling, partial curve]",
CC1(C)CC(=O)C(C=Nc2ccccc2Sc2ccccc2)=C(O)C1,"25.9 µM [rising, partial curve, poor fit]",
COc1ccc(C(=O)Nc2nc(CC(=O)NCCc3cccc(OC)c3)cs2)cc1,"20.6 µM [falling, partial curve, poor fit]",
COc1cc(/C=N/NC(=O)NC2CCCCC2)ccc1O,,"11.2 µM [falling, partial curve]"
